This test can be described thus: qHTS Assay for Lipid Storage Modulators in Drosophila S3 Cells.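 As to cell number change: cells counted by Cell Tracker Red CMTPX staining in the red channel.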 Conditions: BODIPY lipid droplet fluorescence, 18-24 h; for cell number change: measured here: cell count max response, cells fed with added oleic acid. The procedure, abridged: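 Laser-scanning cytometry quantifies lipid droplet accumulation (500–530 nm total intensity; droplet/cell object ratio) in oleic acid-fed (400 uM added) Drosophila S3 cells treated with a concentration series. 20 uM Triacsin C defined 100% inhibition.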
In general terms: In qHTS, concentration-response curves come from the screen itself.

Setting [1] is: measured here: cell number channel AC50, cells fed with added oleic acid.
[2] abbreviates: measured here: lipid fluorescence (Fed channel) AC50, cells fed with added oleic acid.

The list shows a part of the results. These are further read-outs of the screen, such as a control signal, another cell line or another target. No call is given for them. Most of these compounds were active or inconclusive in the main read-out, so they are no random draw. The note in brackets gives the kind of curve behind each potency; many fits are weak.

One may read the AC50 as the concentration at which the activity in the assay is half-maximal. The low end stands for activity at low concentration, the high end for activity only at high concentration. Consider `CCc1ccc(/C=C/C(=O)c2cc(Br)ccc(=O)c2O)cc1`, for which the cell number change was -31%. For the same molecule, the AC50 under setting [1] is 25.9 µM [falling, single point].
As to `COc1ccc(CCNC(=O)c2cnn3c(C(F)F)cc(C)nc23)cc1OC`, the cell number change was -7.01%. Further, under setting [2], the concentration at half-maximal activity (AC50) is 29.1 µM [rising, single point].
For the molecule `O=C(O)c1ccc(NC(=O)C2(c3ccccc3)CCOCC2)cc1`, the cell number change was -7.42%. For the same molecule, the half-maximal activity concentration (AC50) under setting [2] was 0.731 µM [falling, full curve, poor fit].
For the molecule `Cc1ccc2[nH]c(=O)c(C3=NN(C(=O)CCC(=O)O)C(c4cccs4)C3)c(-c3ccccc3)c2c1` (stereo not given), the cell number change is -33%. The AC50 under setting [1] was 16.4 µM [falling, single point].
As to `CC(C)c1ccc(CN(C)CC(O)c2ccccc2)cc1` (stereo not given), the cell number change turned out to be 16.5%. Further, under setting [2], the AC50 was 6.51 µM [rising, single point].
Regarding `Cc1nc2cc(C(=O)OCC(=O)NC3CCS(=O)(=O)C3)ccc2n1-c1ccccc1` (stereo not given), the cell number change was -35.9%. For the same molecule, the concentration at half-maximal activity (AC50) under setting [1] is 8.2 µM [falling, partial curve]. The AC50 under setting [2] was 5.8 µM [falling, single point].
Regarding `CCc1ccc(C2CC(c3ccccc3Cl)Nc3nc(N)nn32)cc1` (stereo not given), the AC50 under setting [2] was 2.91 µM [rising, partial curve].
As for `CCCC1=[N+](CC(=O)c2ccc(Br)cc2)CCn2cccc21`, the cell number change is -0.213%. The AC50 under setting [1] was 0.116 µM [falling, full curve, poor fit]. Also, under setting [2], the AC50 is 0.116 µM [falling, full curve].
With `Cc1ccc(-n2[nH]c3c4c(ccc3c2=O)C(=O)c2ccccc2C4=O)cc1`, the cell number change was -34.8%. For the same molecule, the concentration at half-maximal activity (AC50) under setting [1] was 23.1 µM [falling, partial curve, poor fit]. The AC50 under setting [2] is 0.651 µM [rising, single point].
As to `N#CCC(=O)Nc1ccc(C(=O)NNC(=O)CCN2CCN(c3ccccc3)CC2)cc1`, the cell number change was 18.1%. The AC50 under setting [2] was 6.51 µM [rising, single point].
As to `Cc1cccc(C)c1OCC(=O)Nc1cccc(C(=O)O)c1`, the cell number change is -12.4%.
As to `COc1cc(SC)ccc1C(=O)Nc1nccs1`, the cell number change stood at 6.63%. Also, the AC50 under setting [2] was 23.1 µM [rising, single point].
Take `NS(=O)(=O)c1ccc(CCNC(=O)CNC(=O)c2ccc(Oc3ccccc3)cc2)cc1`: the cell number change came out at 15%. Also, under setting [2], the half-maximal activity concentration (AC50) is 4.11 µM [rising, partial curve].
Take `COc1cc2c(cc1O)CCN(C(=O)CSc1nncn1C)[C@@H]2C`: the cell number change came out at 3.62%. Also, the AC50 under setting [1] is 0.82 µM [rising, single point]. Moreover, the concentration at half-maximal activity (AC50) under setting [2] was 3.66 µM [rising, single point].
On to `O=C(NCCC1=CCCCC1)c1cc(COc2c(F)cccc2F)on1`, for which the cell number change was 0.306%.
Take `Cc1ccc(-c2nnc(SCCC(=O)N3CCOCC3)o2)cc1`: the cell number change was found to be 21%. For the same molecule, under setting [2], the concentration at half-maximal activity (AC50) is 7.31 µM [rising, partial curve].
As for `COc1cc(NS(=O)(=O)c2ccc(NC(=O)/C(=C\c3ccccc3OC)NC(=O)c3ccccc3)cc2)nc(OC)n1`, the cell number change was found to be 8.51%. Moreover, the concentration at half-maximal activity (AC50) under setting [2] is 0.731 µM [falling, full curve].
Turning to `C[C@H](CCC(=O)NCC(=O)O)[C@H]1CC[C@H]2C3[C@H](O)C[C@@H]4C[C@H](O)CC[C@]4(C)[C@H]3C[C@H](O)[C@]12C` (stereo not given in full), the cell number change is -28.2%. Under setting [2], the AC50 was 0.164 µM [falling, full curve].
On to `Cc1cccc([C@@H]2[C@@H]3C(=O)N(Cc4ccccc4)C(=O)[C@@H]3[C@]3(Cc4ccc(Cl)cc4)C(=O)N(c4cccc(Cl)c4)C(=O)N23)c1`, for which the AC50 under setting [2] was 0.00461 µM [falling, full curve, poor fit].
In the case of `CCCC(=O)NCCc1cc2c(C)ccc(C)c2[nH]c1=O`, the cell number change was 8.98%. In addition, the AC50 under setting [2] was 4.11 µM [rising, partial curve, poor fit].
In the case of `CC(=O)Nc1ccc(/C=N/NC(=O)CCN2CCN(c3ccccc3)CC2)cc1`, the cell number change was -22.4%. Moreover, under setting [2], the AC50 was 29.1 µM [falling, single point].
Consider `Cc1cc(C)nc(SCC(=O)c2c(N)n(C)c(=O)n(C)c2=O)n1`, for which the cell number change came out at 32.2%. The AC50 under setting [1] is 23.1 µM [rising, partial curve].
As for `C=CCNC(=S)N1CCN(c2cccc(C(F)(F)F)c2)CC1`, the half-maximal activity concentration (AC50) under setting [2] was 6.51 µM [rising, single point].
Turning to `CCOc1ccc(NC(=O)CNC(=O)Cc2ccccc2)cc1`, the cell number change was found to be 18.1%. Under setting [2], the concentration at half-maximal activity (AC50) is 13 µM [rising, partial curve].
As to `O=C(CN(c1ccc(Cl)cc1)S(=O)(=O)c1ccccc1)N1CCN(c2ccccc2)CC1`, the cell number change came out at 85.3%. For the same molecule, the half-maximal activity concentration (AC50) under setting [1] is 29.1 µM [rising, single point]. Besides, under setting [2], the half-maximal activity concentration (AC50) is 20.6 µM [rising, partial curve].
Consider `Oc1c(C2=NCCNC(C(F)(F)F)=C2)ccc2ccccc12`, for which the cell number change was -51.8%. Under setting [1], the concentration at half-maximal activity (AC50) was 16.4 µM [falling, partial curve]. The concentration at half-maximal activity (AC50) under setting [2] is 18.4 µM [falling, partial curve].
Take `Cc1c(OC(C)C(=O)NCc2ccccn2)ccc2c3c(c(=O)oc12)CCCC3` (stereo not given): the cell number change is -43.3%. The AC50 under setting [1] is 1.03 µM [falling, full curve, poor fit]. Moreover, the concentration at half-maximal activity (AC50) under setting [2] was 6.51 µM [falling, partial curve].
Turning to `CCCCCCNC(=O)CCNS(=O)(=O)c1ccc(C)cc1`, the cell number change was -19.6%. For the same molecule, the half-maximal activity concentration (AC50) under setting [2] is 29.1 µM [falling, partial curve, poor fit].
Consider `COC(=O)N1N=C(c2ccccc2)CC1(O)C(F)(F)F` (stereo not given), for which the half-maximal activity concentration (AC50) under setting [2] was 20.6 µM [rising, single point].
For `COc1ccccc1C(=O)NCCC(=O)N1CCN(S(=O)(=O)c2ccc(Cl)cc2)CC1`, the cell number change is -24%. Under setting [2], the AC50 was 0.461 µM [falling, full curve, poor fit].
With `CC1(C)CC(=O)CC(C)(C)N1OC(=O)c1ccncc1`, the cell number change was -9.17%. For the same molecule, the half-maximal activity concentration (AC50) under setting [2] is 29.1 µM [falling, single point].
`O=C(CN1CCN(c2ncccn2)CC1)N(Cc1ccccc1)c1ccc(F)cc1`: the cell number change came out at 50.2%. The AC50 under setting [1] was 10.3 µM [rising, partial curve]. Also, under setting [2], the AC50 was 3.66 µM [rising, single point].
Turning to `CCC(=O)c1ccc(OCC(=O)Nc2ccccc2C(=O)NC2CC2)cc1`, the cell number change is -1.3%. Also, the AC50 under setting [2] was 32.6 µM [rising, single point].
For the molecule `CC(OC(=O)C(C)Oc1ccccc1)C(=O)Nc1ccc(S(=O)(=O)N2CCCCC2)cc1` (stereo not given), the cell number change is -51%. For the same molecule, the AC50 under setting [1] was 16.4 µM [falling, single point]. Further, the half-maximal activity concentration (AC50) under setting [2] was 13 µM [falling, partial curve, poor fit].
For the molecule `CCOC(=O)c1c(C)[nH]c(C(=O)COC(=O)c2c(CC)noc2C)c1C`, the cell number change is -30%. In addition, under setting [1], the AC50 is 2.31 µM [rising, single point].
In the case of `COCc1cc(=O)[nH]c(Nc2nc(C)c3cc(OC)ccc3n2)n1`, the cell number change stood at 72.5%. Moreover, the AC50 under setting [1] was 5.8 µM [rising, full curve]. Besides, under setting [2], the concentration at half-maximal activity (AC50) was 4.61 µM [rising, full curve].
Take `CS(=O)(=O)N1CCC(C(=O)NNC(=O)Nc2ccc(F)c(Cl)c2)CC1`: the cell number change was 18.8%. The concentration at half-maximal activity (AC50) under setting [1] was 0.651 µM [rising, full curve, poor fit].
As to `N#Cc1nc(COc2ccccc2)oc1N1CCCCCC1`, the cell number change is -0.884%. The concentration at half-maximal activity (AC50) under setting [2] was 0.58 µM [falling, single point].
As to `Cc1ccc(CNC(=O)CSc2nc(=O)n3cccc(C)c3n2)cc1`, under setting [1], the AC50 is 1.03 µM [rising, partial curve].
With `CN(C(=O)COC(=O)CCC(=O)c1ccccc1)c1c(N)n(Cc2ccccc2)c(=O)[nH]c1=O`, the cell number change is 10.5%. Further, under setting [2], the AC50 was 0.366 µM [falling, full curve, poor fit].
Take `CN(C)c1cccc(C(=O)OCC(=O)NCC2CCCO2)c1` (stereo not given): the cell number change is -27.4%. Also, the concentration at half-maximal activity (AC50) under setting [1] is 2.31 µM [falling, full curve, poor fit]. The concentration at half-maximal activity (AC50) under setting [2] is 0.116 µM [falling, single point].
For the molecule `CCCCCCCC(=O)Nc1cc(C(=O)NCCC)ccc1N1CCC2(CC1)CC(c1ccccc1)=NO2`, the cell number change turned out to be 68.6%. Under setting [1], the AC50 was 20.6 µM [rising, partial curve]. For the same molecule, under setting [2], the AC50 is 16.4 µM [falling, partial curve].
Turning to `O=C(N1CCCCC1)C1(c2ccccc2)CCOCC1`, the cell number change was -14.8%.
On to `O=C(Nc1ccc2nc3n(c(=O)c2c1)CCCC3)c1ccccc1F`, for which the cell number change is -12.7%. For the same molecule, the concentration at half-maximal activity (AC50) under setting [2] was 0.0058 µM [falling, full curve, poor fit].
Consider `Cc1cc(C)cc(NC(=O)COc2ccc3c(C)c(Cc4ccccc4)c(=O)oc3c2)c1`, for which the cell number change is 13.3%.
Take `O=[N+]([O-])c1ccc(S(=O)(=O)N/N=C/c2ccsc2)cc1`: the cell number change is -8.22%. In addition, the concentration at half-maximal activity (AC50) under setting [2] is 29.1 µM [rising, single point].
For the molecule `CC1(C)c2ssc(=S)c2-c2ccccc2N1C(=O)CSC1=NCCS1`, the cell number change was -27.9%. Further, the AC50 under setting [2] was 6.51 µM [rising, single point].
For the molecule `COC(=O)c1ccccc1NC(=O)CN1CCC(C)CC1`, the cell number change is 15.3%.
For `CC(=O)Nc1cccc(C(=O)Nc2ccc(S(=O)(=O)N3CCCCC3)cc2)c1`, the cell number change is -21.4%.
Take `CSc1ccccc1C(=O)C1CCCN(C(=O)c2ccc(N3CCOCC3)cc2)C1` (stereo not given): the cell number change is -45.1%. Also, the concentration at half-maximal activity (AC50) under setting [1] is 23.1 µM [falling, single point]. For the same molecule, the concentration at half-maximal activity (AC50) under setting [2] was 29.1 µM [falling, single point].
In the case of `CC(C)CCN(C)C1CCN(S(=O)(=O)c2cccc(C(F)(F)F)c2)CC1`, the cell number change was 3.94%. Further, the AC50 under setting [2] is 29.1 µM [rising, single point].
For `COc1cc(/C=N/NC(=O)c2cccc(NC(=O)c3ccccc3)c2)ccc1O`, the cell number change is -43.7%. Also, the AC50 under setting [1] was 16.4 µM [falling, partial curve, poor fit].
In the case of `C=CCNC(=O)C1CC=CCC1C(=O)O` (stereo not given), the cell number change was -1.84%. In addition, the concentration at half-maximal activity (AC50) under setting [2] is 3.26 µM [falling, full curve, poor fit].
On to `CCOc1ccc(NC2=NC(C(=O)NCc3ccccc3)CC(=O)N2)cc1` (stereo not given), for which the cell number change stood at 7.82%. Besides, under setting [2], the AC50 was 0.651 µM [rising, single point].
As for `CCOc1ccccc1-n1c(SCC(=O)N2CCOCC2)nc2ccccc2c1=O`, the cell number change was -1.32%. The AC50 under setting [2] is 5.62 µM [rising, single point].
On to `Cn1c(SCc2ccccc2Cl)nc(C(F)(F)F)cc1=O`, for which the cell number change came out at 31.6%.
For the molecule `O=C1CC(C(=O)NC2CCCCC2)C2(CCCCC2)O1` (stereo not given), the cell number change was found to be 2.85%. The AC50 under setting [2] is 0.0184 µM [rising, full curve, poor fit].

For the origin of these results see PubChem BioAssay AID2685 (National Center for Advancing Translational Sciences (NCATS), 2010).
